Results taken from PMC10641524.
These are yes or no findings as the source states them, for the method shown. In cells and extracts the contact can be indirect. Here binding means that the protein was enriched with, or labelled near, the bait; the list need not be complete.

The chains behind the UniProt entries cited, without tags or fusion partners.
UniProt Q9NP72: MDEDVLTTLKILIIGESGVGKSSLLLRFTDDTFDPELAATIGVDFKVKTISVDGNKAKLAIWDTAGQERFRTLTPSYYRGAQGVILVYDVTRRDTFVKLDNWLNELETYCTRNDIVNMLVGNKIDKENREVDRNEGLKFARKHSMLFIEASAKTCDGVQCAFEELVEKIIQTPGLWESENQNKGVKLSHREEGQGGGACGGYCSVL
UniProt Q9Y426: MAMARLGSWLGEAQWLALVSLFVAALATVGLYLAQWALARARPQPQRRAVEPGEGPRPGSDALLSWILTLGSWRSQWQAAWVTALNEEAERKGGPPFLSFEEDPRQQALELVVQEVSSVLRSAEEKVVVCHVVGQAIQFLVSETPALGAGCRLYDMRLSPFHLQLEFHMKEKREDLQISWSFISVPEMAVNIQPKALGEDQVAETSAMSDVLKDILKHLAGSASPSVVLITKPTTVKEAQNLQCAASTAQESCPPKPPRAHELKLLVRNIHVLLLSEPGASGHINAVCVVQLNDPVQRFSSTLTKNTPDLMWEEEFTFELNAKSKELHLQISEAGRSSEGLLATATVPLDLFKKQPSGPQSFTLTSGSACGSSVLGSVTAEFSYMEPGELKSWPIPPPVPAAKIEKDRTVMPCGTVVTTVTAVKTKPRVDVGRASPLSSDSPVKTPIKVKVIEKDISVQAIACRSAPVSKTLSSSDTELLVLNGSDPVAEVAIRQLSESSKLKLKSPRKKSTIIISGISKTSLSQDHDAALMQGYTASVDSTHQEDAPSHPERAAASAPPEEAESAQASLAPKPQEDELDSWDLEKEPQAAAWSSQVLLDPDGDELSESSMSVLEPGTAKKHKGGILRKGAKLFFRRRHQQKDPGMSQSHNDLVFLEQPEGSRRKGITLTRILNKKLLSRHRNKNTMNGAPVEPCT
UniProt Q6AZY7: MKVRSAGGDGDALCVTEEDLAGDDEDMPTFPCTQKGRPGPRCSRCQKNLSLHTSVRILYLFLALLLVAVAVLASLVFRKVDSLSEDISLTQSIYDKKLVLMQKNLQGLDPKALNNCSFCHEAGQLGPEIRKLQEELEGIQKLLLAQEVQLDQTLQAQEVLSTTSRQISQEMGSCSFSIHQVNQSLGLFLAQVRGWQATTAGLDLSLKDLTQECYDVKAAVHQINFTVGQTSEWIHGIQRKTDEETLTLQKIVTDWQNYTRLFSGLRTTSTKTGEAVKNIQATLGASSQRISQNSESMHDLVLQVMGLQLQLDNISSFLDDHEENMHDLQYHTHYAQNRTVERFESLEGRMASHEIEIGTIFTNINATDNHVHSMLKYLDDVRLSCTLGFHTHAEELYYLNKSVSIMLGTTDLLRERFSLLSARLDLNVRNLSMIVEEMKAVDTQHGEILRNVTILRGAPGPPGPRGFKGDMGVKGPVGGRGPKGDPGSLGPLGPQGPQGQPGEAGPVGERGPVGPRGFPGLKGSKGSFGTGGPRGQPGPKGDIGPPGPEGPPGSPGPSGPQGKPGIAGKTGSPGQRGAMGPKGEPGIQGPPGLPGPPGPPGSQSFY
UniProt Q5T5Y3: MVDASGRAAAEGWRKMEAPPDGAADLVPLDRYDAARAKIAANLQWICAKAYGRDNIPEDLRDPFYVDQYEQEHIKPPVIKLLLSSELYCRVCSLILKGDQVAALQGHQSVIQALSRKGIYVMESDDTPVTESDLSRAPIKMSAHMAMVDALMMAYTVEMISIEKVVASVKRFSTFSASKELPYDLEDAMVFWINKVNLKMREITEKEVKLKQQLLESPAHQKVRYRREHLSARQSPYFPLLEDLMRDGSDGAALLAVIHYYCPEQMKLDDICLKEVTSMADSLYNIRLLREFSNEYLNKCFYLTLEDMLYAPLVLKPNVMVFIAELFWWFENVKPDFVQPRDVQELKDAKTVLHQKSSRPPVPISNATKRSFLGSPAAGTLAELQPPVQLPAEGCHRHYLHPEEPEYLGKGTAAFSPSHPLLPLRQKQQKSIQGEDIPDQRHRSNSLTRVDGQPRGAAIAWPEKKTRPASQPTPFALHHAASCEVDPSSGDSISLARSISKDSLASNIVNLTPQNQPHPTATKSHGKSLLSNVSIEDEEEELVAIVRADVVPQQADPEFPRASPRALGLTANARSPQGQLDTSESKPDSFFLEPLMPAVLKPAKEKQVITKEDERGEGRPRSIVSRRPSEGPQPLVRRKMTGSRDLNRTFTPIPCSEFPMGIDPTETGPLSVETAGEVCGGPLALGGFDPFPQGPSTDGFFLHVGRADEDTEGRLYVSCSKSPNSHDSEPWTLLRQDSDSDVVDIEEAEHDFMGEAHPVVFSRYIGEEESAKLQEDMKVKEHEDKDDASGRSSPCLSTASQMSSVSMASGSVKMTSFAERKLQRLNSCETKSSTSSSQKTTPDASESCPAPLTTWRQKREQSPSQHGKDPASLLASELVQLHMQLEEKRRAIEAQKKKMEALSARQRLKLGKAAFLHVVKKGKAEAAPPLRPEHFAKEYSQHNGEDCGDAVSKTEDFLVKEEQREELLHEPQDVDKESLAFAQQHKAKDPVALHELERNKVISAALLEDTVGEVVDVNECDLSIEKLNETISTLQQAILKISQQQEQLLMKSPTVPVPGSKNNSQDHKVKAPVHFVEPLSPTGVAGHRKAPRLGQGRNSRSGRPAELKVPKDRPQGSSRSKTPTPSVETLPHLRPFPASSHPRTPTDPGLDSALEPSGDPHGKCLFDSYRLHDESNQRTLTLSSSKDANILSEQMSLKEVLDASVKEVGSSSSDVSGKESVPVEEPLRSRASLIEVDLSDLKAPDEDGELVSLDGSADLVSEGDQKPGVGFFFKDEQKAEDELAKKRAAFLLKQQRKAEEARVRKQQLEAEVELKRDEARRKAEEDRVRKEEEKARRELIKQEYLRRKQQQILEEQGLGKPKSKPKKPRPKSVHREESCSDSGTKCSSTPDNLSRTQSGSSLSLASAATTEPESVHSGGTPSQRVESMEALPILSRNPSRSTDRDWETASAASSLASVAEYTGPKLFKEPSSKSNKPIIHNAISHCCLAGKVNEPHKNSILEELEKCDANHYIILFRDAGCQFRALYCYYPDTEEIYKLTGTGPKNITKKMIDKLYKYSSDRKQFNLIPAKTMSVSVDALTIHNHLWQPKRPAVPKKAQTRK
UniProt P32019: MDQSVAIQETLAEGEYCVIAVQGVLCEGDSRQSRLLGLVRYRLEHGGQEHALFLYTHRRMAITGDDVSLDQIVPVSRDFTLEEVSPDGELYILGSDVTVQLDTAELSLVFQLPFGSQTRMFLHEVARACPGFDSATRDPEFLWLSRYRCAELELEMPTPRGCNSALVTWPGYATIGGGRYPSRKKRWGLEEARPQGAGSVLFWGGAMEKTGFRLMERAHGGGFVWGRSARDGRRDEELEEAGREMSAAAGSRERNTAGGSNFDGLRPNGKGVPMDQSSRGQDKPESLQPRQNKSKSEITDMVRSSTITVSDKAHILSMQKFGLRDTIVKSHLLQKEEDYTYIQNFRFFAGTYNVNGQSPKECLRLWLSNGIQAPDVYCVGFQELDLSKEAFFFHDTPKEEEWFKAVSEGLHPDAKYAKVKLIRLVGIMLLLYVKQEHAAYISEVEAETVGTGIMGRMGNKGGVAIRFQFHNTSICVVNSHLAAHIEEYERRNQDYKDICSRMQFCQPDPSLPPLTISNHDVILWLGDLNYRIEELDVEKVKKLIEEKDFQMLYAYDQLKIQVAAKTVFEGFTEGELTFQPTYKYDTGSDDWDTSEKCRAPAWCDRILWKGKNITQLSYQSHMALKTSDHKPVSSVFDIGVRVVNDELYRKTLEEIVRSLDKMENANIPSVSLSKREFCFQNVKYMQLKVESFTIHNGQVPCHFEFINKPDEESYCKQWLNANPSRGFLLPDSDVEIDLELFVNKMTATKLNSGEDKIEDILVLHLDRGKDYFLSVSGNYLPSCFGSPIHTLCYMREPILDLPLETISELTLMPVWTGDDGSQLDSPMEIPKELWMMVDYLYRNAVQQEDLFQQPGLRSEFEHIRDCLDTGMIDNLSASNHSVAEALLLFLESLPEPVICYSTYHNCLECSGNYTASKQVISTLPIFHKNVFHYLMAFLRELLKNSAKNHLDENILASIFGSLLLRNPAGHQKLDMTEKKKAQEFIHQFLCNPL
UniProt Q9Y282: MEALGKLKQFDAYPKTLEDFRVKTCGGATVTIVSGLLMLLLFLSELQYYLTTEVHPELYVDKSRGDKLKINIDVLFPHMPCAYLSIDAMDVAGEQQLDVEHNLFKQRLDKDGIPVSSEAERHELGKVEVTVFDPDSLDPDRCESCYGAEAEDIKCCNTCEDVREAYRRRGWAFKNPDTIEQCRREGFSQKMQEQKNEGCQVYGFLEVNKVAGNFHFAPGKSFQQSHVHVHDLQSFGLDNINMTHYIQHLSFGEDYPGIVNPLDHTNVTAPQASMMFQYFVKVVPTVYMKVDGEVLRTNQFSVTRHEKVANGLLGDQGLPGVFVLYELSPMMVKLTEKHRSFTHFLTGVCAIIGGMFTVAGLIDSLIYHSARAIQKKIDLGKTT
UniProt Q6NUQ1: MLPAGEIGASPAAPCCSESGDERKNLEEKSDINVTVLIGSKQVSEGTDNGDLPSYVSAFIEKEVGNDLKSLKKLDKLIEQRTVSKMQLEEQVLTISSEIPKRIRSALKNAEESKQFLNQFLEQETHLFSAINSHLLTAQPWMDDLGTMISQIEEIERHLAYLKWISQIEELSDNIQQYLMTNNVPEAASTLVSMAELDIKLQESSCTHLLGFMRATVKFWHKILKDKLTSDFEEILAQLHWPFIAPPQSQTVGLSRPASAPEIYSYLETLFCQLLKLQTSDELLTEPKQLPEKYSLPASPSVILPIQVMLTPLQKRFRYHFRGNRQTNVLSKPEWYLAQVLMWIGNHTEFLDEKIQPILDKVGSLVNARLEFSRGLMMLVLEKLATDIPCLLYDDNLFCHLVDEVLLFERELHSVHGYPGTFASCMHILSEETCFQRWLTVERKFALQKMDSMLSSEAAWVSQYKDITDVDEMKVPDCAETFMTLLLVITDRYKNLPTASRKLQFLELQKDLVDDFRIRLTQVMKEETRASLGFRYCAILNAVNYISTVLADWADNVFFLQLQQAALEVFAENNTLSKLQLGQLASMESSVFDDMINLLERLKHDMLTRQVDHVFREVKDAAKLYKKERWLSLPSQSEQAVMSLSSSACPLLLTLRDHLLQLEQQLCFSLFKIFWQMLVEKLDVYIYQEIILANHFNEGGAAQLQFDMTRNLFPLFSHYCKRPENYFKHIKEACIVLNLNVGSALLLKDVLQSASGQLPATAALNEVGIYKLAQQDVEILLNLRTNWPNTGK
UniProt Q8TD16: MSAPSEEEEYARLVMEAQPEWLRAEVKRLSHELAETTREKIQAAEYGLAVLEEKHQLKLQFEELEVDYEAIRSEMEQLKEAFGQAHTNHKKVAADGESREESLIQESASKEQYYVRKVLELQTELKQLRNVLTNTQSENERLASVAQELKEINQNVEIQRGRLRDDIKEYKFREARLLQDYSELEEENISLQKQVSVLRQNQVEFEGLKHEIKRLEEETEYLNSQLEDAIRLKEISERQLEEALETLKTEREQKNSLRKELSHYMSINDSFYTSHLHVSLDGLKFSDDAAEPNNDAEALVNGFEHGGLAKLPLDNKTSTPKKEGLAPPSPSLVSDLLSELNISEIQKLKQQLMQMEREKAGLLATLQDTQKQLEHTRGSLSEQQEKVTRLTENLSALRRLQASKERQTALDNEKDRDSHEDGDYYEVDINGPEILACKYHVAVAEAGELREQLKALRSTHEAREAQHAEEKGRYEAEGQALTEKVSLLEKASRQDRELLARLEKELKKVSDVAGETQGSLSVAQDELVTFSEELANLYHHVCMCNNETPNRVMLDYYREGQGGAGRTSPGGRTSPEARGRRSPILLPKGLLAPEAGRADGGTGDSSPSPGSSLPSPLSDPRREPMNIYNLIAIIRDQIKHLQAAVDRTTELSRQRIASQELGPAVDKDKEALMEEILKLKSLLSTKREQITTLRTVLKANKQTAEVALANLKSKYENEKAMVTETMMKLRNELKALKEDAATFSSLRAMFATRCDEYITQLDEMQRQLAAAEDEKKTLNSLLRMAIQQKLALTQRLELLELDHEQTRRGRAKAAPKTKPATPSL

B1: RAB3GAP1 (protein, UniProt Q15042 1-981)
chain: MAADSEPESEVFEITDFTTASEWERFISKVEEVLNDWKLIGNSLGKPLEKGIFTSGTWEEKSDEISFADFKFSVTHHYLVQESTDKEGKDELLEDVVPQSMQDLLGMNNDFPPRAHCLVRWYGLREFVVIAPAAHSDAVLSESKCNLLLSSVSIALGNTGCQVPLFVQIHHKWRRMYVGECQGPGVRTDFEMVHLRKVPNQYTHLSGLLDIFKSKIGCPLTPLPPVSIAIRFTYVLQDWQQYFWPQQPPDIDALVGGEVGGLEFGKLPFGACEDPISELHLATTWPHLTEGIIVDNDVYSDLDPIQAPHWSVRVRKAENPQCLLGDFVTEFFKICRRKESTDEILGRSAFEEEGKETADITHALSKLTEPASVPIHKLSVSNMVHTAKKKIRKHRGVEESPLNNDVLNTILLFLFPDAVSEKPLDGTTSTDNNNPPSESEDYNLYNQFKSAPSDSLTYKLALCLCMINFYHGGLKGVAHLWQEFVLEMRFRWENNFLIPGLASGPPDLRCCLLHQKLQMLNCCIERKKARDEGKKTSASDVTNIYPGDAGKAGDQLVPDNLKETDKEKGEVGKSWDSWSDSEEEFFECLSDTEELKGNGQESGKKGGPKEMANLRPEGRLYQHGKLTLLHNGEPLYIPVTQEPAPMTEDLLEEQSEVLAKLGTSAEGAHLRARMQSACLLSDMESFKAANPGCSLEDFVRWYSPRDYIEEEVIDEKGNVVLKGELSARMKIPSNMWVEAWETAKPIPARRQRRLFDDTREAEKVLHYLAIQKPADLARHLLPCVIHAAVLKVKEEESLENISSVKKIIKQIISHSSKVLHFPNPEDKKLEEIIHQITNVEALIARARSLKAKFGTEKCEQEEEKEDLERFVSCLLEQPEVLVTGAGRGHAGRIIHKLFVNAQRAAAMTPPEEELKRMGSPEERRQNSVSDFPPPAGREFILRTTVPRPAPYSKALPQRMYSVLTKEDFRLAGAFSSDTSFF
B2: BNIP1 (protein, UniProt Q12981 1-228)
chain: MAAPQDVHVRICNQEIVKFDLEVKALIQDIRDCSGPLSALTELNTKVKEKFQQLRHRIQDLEQLAKEQDKESEKQLLLQEVENHKKQMLSNQASWRKANLTCKIAIDNLEKAELLQGGDLLRQRKTTKESLAQTSSTITESLMGISRMMAQQVQQSEEAMQSLVTSSRTILDANEEFKSMSGTIQLGRKLITKYNRRELTDKLLIFLALALFLATVLYIVKKRLFPFL
B3: TRIM13 (protein, UniProt O60858 1-407)
chain: MELLEEDLTCPICCSLFDDPRVLPCSHNFCKKCLEGILEGSVRNSLWRPAPFKCPTCRKETSATGINSLQVNYSLKGIVEKYNKIKISPKMPVCKGHLGQPLNIFCLTDMQLICGICATRGEHTKHVFCSIEDAYAQERDAFESLFQSFETWRRGDALSRLDTLETSKRKSLQLLTKDSDKVKEFFEKLQHTLDQKKNEILSDFETMKLAVMQAYDPEINKLNTILQEQRMAFNIAEAFKDVSEPIVFLQQMQEFREKIKVIKETPLPPSNLPASPLMKNFDTSQWEDIKLVDVDKLSLPQDTGTFISKIPWSFYKLFLLILLLGLVIVFGPTMFLEWSLFDDLATWKGCLSNFSSYLTKTADFIEQSVFYWEQVTDGFFIFNERFKNFTLVVLNNVAEFVCKYKLL
B4: SSR3 (protein, UniProt Q9UNL2 1-185)
chain: MAPKGSSKQQSEEDLLLQDFSRNLSAKSSALFFGNAFIVSAIPIWLYWRIWHMDLIQSAVLYSVMTLVSTYLVAFAYKNVKFVLKHKVAQKREDAVSKEVTRKLSEADNRKMSRKEKDERILWKKNEVADYEATTFSIFYNNTLFLVVVIVASFFILKNFNPTVNYILSISASSGLIALLSTGSK
B5: PBXIP1 (protein, UniProt Q96AQ6 1-731)
chain: MASCPDSDNSWVLAGSESLPVETLGPASRMDPESERALQAPHSPSKTDGKELAGTMDGEGTLFQTESPQSGSILTEETEVKGTLEGDVCGVEPPGPGDTVVQGDLQETTVVTGLGPDTQDLEGQSPPQSLPSTPKAAWIREEGRCSSSDDDTDVDMEGLRRRRGREAGPPQPMVPLAVENQAGGEGAGGELGISLNMCLLGALVLLGLGVLLFSGGLSESETGPMEEVERQVLPDPEVLEAVGDRQDGLREQLQAPVPPDSVPSLQNMGLLLDKLAKENQDIRLLQAQLQAQKEELQSLMHQPKGLEEENAQLRGALQQGEAFQRALESELQQLRARLQGLEADCVRGPDGVCLSGGRGPQGDKAIREQGPREQEPELSFLKQKEQLEAEAQALRQELERQRRLLGSVQQDLERSLQDASRGDPAHAGLAELGHRLAQKLQGLENWGQDPGVSANASKAWHQKSHFQNSREWSGKEKWWDGQRDRKAEHWKHKKEESGRERKKNWGGQEDREPAGRWKEGRPRVEESGSKKEGKRQGPKEPPRKSGSFHSSGEKQKQPRWREGTKDSHDPLPSWAELLRPKYRAPQGCSGVDECARQEGLTFFGTELAPVRQQELASLLRTYLARLPWAGQLTKELPLSPAFFGEDGIFRHDRLRFRDFVDALEDSLEEVAVQQTGDDDEVDDFEDFIFSHFFGDKALKKRSGKKDKHSQSPRAAGPREGHSHSHHHHHRG
B6: REEP4 (protein, UniProt Q9H6H4 1-257)
chain: MVSWMICRLVVLVFGMLCPAYASYKAVKTKNIREYVRWMMYWIVFALFMAAEIVTDIFISWFPFYYEIKMAFVLWLLSPYTKGASLLYRKFVHPSLSRHEKEIDAYIVQAKERSYETVLSFGKRGLNIAASAAVQAATKSQGALAGRLRSFSMQDLRSISDAPAPAYHDPLYLEDQVSHRRPPIGYRAGGLQDSDTEDECWSDTEAVPRAPARPREKPLIRSQSLRVVKRKPPVREGTSRSLKVRTRKKTVPSDVDS
B7: TMCO4 (endogenous) (protein, UniProt Q5TGY1 1-634)
chain: MAMWNRPCQRLPQQPLVAEPTAEGEPHLPTGRELTEANRFAYAALCGISLSQLFPEPEHSSFCTEFMAGLVQWLELSEAVLPTMTAFASGLGGEGADVFVQILLKDPILKDDPTVITQDLLSFSLKDGHYDARARVLVCHMTSLLQVPLEELDVLEEMFLESLKEIKEEESEMAEASRKKKENRRKWKRYLLIGLATVGGGTVIGVTGGLAAPLVAAGAATIIGSAGAAALGSAAGIAIMTSLFGAAGAGLTGYKMKKRVGAIEEFTFLPLTEGRQLHITIAVTGWLASGKYRTFSAPWAALAHSREQYCLAWEAKYLMELGNALETILSGLANMVAQEALKYTVLSGIVAALTWPASLLSVANVIDNPWGVCLHRSAEVGKHLAHILLSRQQGRRPVTLIGFSLGARVIYFCLQEMAQEKDCQGIIEDVILLGAPVEGEAKHWEPFRKVVSGRIINGYCRGDWLLSFVYRTSSVQLRVAGLQPVLLQDRRVENVDLTSVVSGHLDYAKQMDAILKAVGIRTKPGWDEKGLLLAPGCLPSEEPRQAAAAASSGETPHQVGQTQGPISGDTSKLAMSTDPSQAQVPVGLDQSEGASLPAAASPERPPICSHGMDPNPLGCPDCACKTQGPSTGLD
B8: MFHAS1 (protein, UniProt Q9Y4C4 1-1052)
chain: MAGMDSGNLKTARLWRDAALRARKLRSNLRQLTLTAAGACPGAGADALESPASPQLVLPANLGDIEALNLGNNGLEEVPEGLGSALGSLRVLVLRRNRFARLPPAVAELGHHLTELDVSHNRLTALGAEVVSALRELRKLNLSHNQLPALPAQLGALAHLEELDVSFNRLAHLPDSLSCLSRLRTLDVDHNQLTAFPRQLLQLVALEELDVSSNRLRGLPEDISALRALKILWLSGAELGTLPAGFCELASLESLMLDNNGLQALPAQFSCLQRLKMLNLSSNLFEEFPAALLPLAGLEELYLSRNQLTSVPSLISGLGRLLTLWLDNNRIRYLPDSIVELTGLEELVLQGNQIAVLPDHFGQLSRVGLWKIKDNPLIQPPYEVCMKGIPYIAAYQKELAHSQPAVQPRLKLLLMGHKAAGKTLLRHCLTEERVEGCPGGGDKEKCYPPSPPPVSKGIEVTSWTADASRGLRFIVYDLAGDESYEVIQPFFLSPGALYVLVVNLATYEPRHFPTTVGSFLHRVGARVPHAVVCIVGTHADLCGERELEEKCLDIHRQIALQEKHDAEGLSRLAKVVDEALARDFELRSASPHAAYYGVSDKNLRRRKAHFQYLLNHRLQILSPVLPVSCRDPRHLRRLRDKLLSVAEHREIFPNLHRVLPRSWQVLEELHFQPPQAQRLWLSWWDSARLGLQAGLTEDRLQSALSYLHESGKLLYFEDSPALKEHVFHNLTRLIDILNVFFQRDPSLLLHKLLLGTSGEGKAEGESSPPMARSTPSQELLRATQLHQYVEGFLLHGLLPAHVIRLLLKPHVQAQQDLQLLLELLEKMGLCYCLNKPKGKPLNGSTAWYKFPCYVQNEVPHAEAWINGTNLAGQSFVAEQLQIEYSFPFTFPLGLFARYSVQINSHVVHRSDGKFQIFAYRGKVPVVVSYRPARGVLQPDTLSIASHASLPNIWTAWQAITPLVEELNVLLQEWPGLHYTVHILCSKCLKRGSPNPHAFPGELLSQPRPEGVAEIICPKNGSERVNVALVYPPTPTVISPCSKKNVGEKHRNQ
B9: C2CD2L (protein, UniProt O14523 1-706)
chain: MDPGWGQRDVGWAALLILFAASLLTVFAWLLQYARGLWLARARGDRGPGPALAGEPAGSLRELGVWRSLLRLRATRAGAAEEPGVRGLLASLFAFKSFRENWQRAWVRALNEQACRNGSSIQIAFEEVPQLPPRASISHVTCVDQSEHTMVLRCQLSAEEVRFPVSVTQQSPAAVSMETYHVTLTLPPTQLEVNLEEIPGEGLLISWAFTDRPDLSLTVLPKLQARERGEEQVELSTIEELIKDAIVSTQPAMMVNLRACSAPGGLVPSEKPPMMPQAQPAIPRPNRLFLRQLRASHLGNELEGTEELCCVAELDNPMQQKWTKPARAGSEVEWTEDLALDLGPQSRELTLKVLRSSSCGDTELLGQATLPVGSPSRPLSRRQLCPLTPGPGKALGPAATMAVELHYEEGSPRNLGTPTSSTPRPSITPTKKIELDRTIMPDGTIVTTVTTVQSRPRIDGKLDSPSRSPSKVEVTEKTTTVLSESSGPSNTSHSSSRDSHLSNGLDPVAETAIRQLTEPSGRVAKKTPTKRSTLIISGVSKVPIAQDELALSLGYAASLEASVQDDAGTSGGPSSPPSDPPAMSPGPLDALSSPTSVQEADETTRSDISERPSVDDIESETGSTGALETRSLKDHKVSFLRSGTKLIFRRRPRQKEAGLSQSHDDLSNATATPSVRKKAGSFSRRLIKRFSFKSKPKANGNPSPQL

target: BirA*-RAB18 (UniProt Q9NP72); assay: proximity labelling; BioID: BirA*-RAB18 transiently expressed in WT HeLa cells (compared with RAB3GAP1-, RAB3GAP2- and TRAPPC9-null cells), 50 uM biotin 24 h; biotinylated proteins purified on streptavidin Dynabeads, label-free quantitative mass spectrometry; hits are proteins with RAB3GAP-null:WT intensity ratio <=0.5

Row | binding | Molecule
1 | binds | C2CD2 (from UniProt Q9Y426 1-696)
2 | binds | SCARA3 (from UniProt Q6AZY7 1-606)
3 | binds | CAMSAP1 (from UniProt Q5T5Y3 1-1602)
4 | binds | INPP5B (endogenous) (from UniProt P32019 1-993)
5 | binds | ERGIC3 (from UniProt Q9Y282 1-383)
6 | binds | RINT1 (from UniProt Q6NUQ1 1-792)
7 | binds | NBAS (from UniProt A2RRP1 1-2371)
8 | binds | B1
9 | binds | B2
10 | binds | B3
11 | binds | B4
12 | binds | B5
13 | binds | B6
14 | binds | B7
15 | binds | B8
16 | binds | B9

Row | Molecule | binding
17 | BICD2 (from UniProt Q8TD16 1-824) | binds
